The assay can be described thus: qHTS Assay for Lipid Storage Modulators in Drosophila S3 Cells.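 As to cell number change: cells counted by Cell Tracker Red CMTPX staining in the red channel.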 Particulars: BODIPY lipid droplet fluorescence, 18-24 h; for cell number change: measured here: cell count max response, cells fed with added oleic acid. A digest of the protocol:
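Laser-scanning cytometry quantifies lipid droplet accumulation (500–530 nm total intensity; droplet/cell object ratio) in oleic acid-fed (400 uM added) Drosophila S3 cells treated with a concentration series. 20 uM Triacsin C defined 100% inhibition.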
A general note: In qHTS, concentration-response curves come from the screen itself.

The mark [1] stands for this setting: measured here: lipid fluorescence (Fed channel) AC50, cells fed with added oleic acid.
[2] abbreviates: measured here: cell number channel AC50, cells fed with added oleic acid.

Structures are written as SMILES. This is one part of the list. These are further read-outs of the screen, such as a control signal, another cell line or another target. No call is given for them. The list favours compounds with an active or inconclusive main result. Potencies come from curve fits of mixed quality, noted in brackets.

As for `C=C1CCN([C@@H](C)C(=O)OCc2cccc(C)c2)S(=O)(=O)c2ccccc21`, the cell number change was found to be 13.2%. In addition, the concentration at half-maximal activity (AC50) under setting [1] is 2.31 µM [rising, full curve, poor fit].
As for `O=C(Nc1ccc(Br)c2ccccc12)c1ccc2ccccc2c1O`, the cell number change is -37.4%. In addition, the concentration at half-maximal activity (AC50) under setting [2] is 29.1 µM [falling, single point]. For the same molecule, under setting [1], the AC50 is 2.06 µM [falling, full curve].
In the case of `CCn1ncc([N+](=O)[O-])c1C(=O)Nc1ccc(C)c(C)c1`, the cell number change was -6.08%. In addition, the AC50 under setting [1] was 4.11 µM [rising, full curve].
Consider `CCCc1nc2scc(-c3ccc(C)cc3)c2c(=O)n1N`, for which the cell number change came to 7.72%. Under setting [2], the AC50 is 2.31 µM [rising, partial curve]. Moreover, the AC50 under setting [1] was 3.66 µM [rising, partial curve].
With `COc1ccc(OC)c(S(=O)(=O)NCc2cc(-c3ccccc3)no2)c1`, the cell number change worked out at 3.47%. Further, the AC50 under setting [2] is 0.631 µM [falling, full curve, poor fit].
Regarding `CCOC(=O)c1c(C)[nH]c(C)c1S(=O)(=O)NCCc1sccc1C`, the cell number change was -32.8%. Besides, under setting [2], the concentration at half-maximal activity (AC50) is 0.0326 µM [falling, full curve, poor fit]. Besides, the AC50 under setting [1] is 0.58 µM [falling, single point].
For `CC(C(=O)N(C1CC1)C1(C(=O)Nc2ccccc2)CCCC1)N1C(=O)c2ccccc2C1=O` (configuration not stated), the cell number change was 16.2%.
As to `Cc1noc(C)c1CSc1ncnc2ccccc12`, the cell number change is 6.63%. Moreover, under setting [1], the AC50 was 29.1 µM [rising, single point].
For the molecule `CCOC(=O)c1c(C)oc2c1c(C=NCc1ccccn1)c(O)c1ccccc12`, the cell number change was -2.9%.
`C[C@@H](N)C(=O)NC[C@H]1CC[C@H](C(=O)N[C@@H](Cc2ccccc2)C(=O)O)CC1`: the AC50 reads like this: under setting [2], 6.51 µM [rising, partial curve, poor fit]; under setting [1], 2.91 µM [rising, single point].
In the case of `CON1C(=O)CN(C(C)=O)C1c1ccc(Cl)cc1Cl` (configuration not stated), the cell number change was found to be 9.26%. Moreover, under setting [1], the AC50 was 29.1 µM [falling, partial curve].
As to `COC(=O)c1cc(NS(=O)(=O)c2ccc(N3CCOCC3)c(N)c2)cc(C(=O)OC)c1`, the cell number change was found to be 9.2%. In addition, the concentration at half-maximal activity (AC50) under setting [1] was 3.66 µM [rising, single point].
With `Cn1c(=O)c2c(nc(-c3ccccc3)n2C)n(Cc2ccccc2)c1=O`, under setting [2], the AC50 is 1.84 µM [rising, partial curve, poor fit].
As for `Nc1cc(S(=O)(=O)Nc2ccccc2Cl)ccc1N1CCCC1`, the cell number change is -2.69%.
On to `Cc1ccc(C(=O)NNC2=NCCC2)cc1`, for which the cell number change was -33.2%. Besides, under setting [2], the AC50 is 0.00517 µM [falling, full curve]. In addition, the AC50 under setting [1] is 0.184 µM [falling, full curve].
For the molecule `C=CCNC(=S)NNC(=O)CSc1nc2ccccc2s1`, the AC50 under setting [1] is 29.1 µM [rising, single point].
For the molecule `O=C(NC(Cc1ccccc1)C(=O)NC1CC1)OCc1ccccc1` (configuration not stated), the cell number change is -30%. For the same molecule, under setting [2], the half-maximal activity concentration (AC50) was 3.66 µM [falling, full curve, poor fit]. For the same molecule, under setting [1], the concentration at half-maximal activity (AC50) is 6.51 µM [falling, single point].
`O=C(Nc1nc(-c2ccccn2)cs1)c1ccc(-c2ccccc2F)o1`: the cell number change is -63.1%. For the same molecule, the AC50 under setting [2] is 18.4 µM [falling, partial curve]. Also, under setting [1], the AC50 was 0.231 µM [falling, full curve, poor fit].
Turning to `Cc1nc2ccccc2n1C1CC(=O)N(N(C)C)C1=O` (configuration not stated), the cell number change is -11%. Also, the AC50 under setting [1] is 25.9 µM [falling, partial curve].
For `N#CCSc1nc2ccccc2c(=O)n1CCC(=O)NC1CCCCC1`, the cell number change was -23.7%. The AC50 under setting [1] is 14.6 µM [falling, single point].
For `Cc1ccc(N(C(=O)c2snc(C(N)=O)c2N)C(C(=O)NCC2CCCO2)c2c[nH]c3ccccc23)cc1` (configuration not stated), the cell number change is -16.7%. Also, the half-maximal activity concentration (AC50) under setting [1] was 3.66 µM [falling, partial curve].
Turning to `Nc1c(/C=C2/C=CC(=O)C(O)=C2)c(=O)nc2sc(CC(=O)N3CCCC3)nn12`, the cell number change was 14.1%. Also, the concentration at half-maximal activity (AC50) under setting [1] is 29.1 µM [rising, single point].
Turning to `O=Cc1c(NCc2ccccc2Cl)c2ccccc2[nH]c1=O`, the cell number change is -16.6%. The AC50 under setting [1] is 29.1 µM [falling, single point].
Turning to `C=CCn1c(SCC(=O)Nc2cccnc2Cl)nnc1-c1ccccc1F`, the cell number change came to 23.7%. Further, the AC50 under setting [1] is 4.61 µM [rising, partial curve, poor fit].
Regarding `O=C(CSC1=NC(=O)C(Cc2ccccc2)C(=O)N1)NC1CCCCC1` (configuration not stated), the cell number change was -25.1%. Under setting [2], the concentration at half-maximal activity (AC50) is 0.0517 µM [falling, full curve, poor fit]. Moreover, under setting [1], the concentration at half-maximal activity (AC50) is 0.58 µM [falling, full curve].
As to `O=C(O)CCCCCNS(=O)(=O)c1cccc2c1C(=O)c1ccccc1C2=O`, the cell number change is -20.1%. Under setting [1], the concentration at half-maximal activity (AC50) is 7.31 µM [falling, partial curve].
Regarding `C=CCNC(=S)NNC(=O)c1cc(O)ccc1O`, the cell number change was -31.1%. The AC50 under setting [1] is 16.4 µM [falling, single point].
On to `CCOc1ccc(N2CC(C(=O)NCc3ccccn3)CC2=O)cc1` (configuration not stated), for which the cell number change was determined as 21.4%. Under setting [1], the AC50 is 29.1 µM [rising, single point].
With `CC(C)C(=O)NN(C(=O)C(C)C)c1nc2ccccc2s1`, the cell number change was -53.4%. Also, the AC50 under setting [2] was 23.1 µM [falling, single point].
On to `CCOC(=O)C1=C(c2ccccc2)NC(=O)NC1c1ccc(OC)cc1` (configuration not stated), for which the cell number change is 14.1%.
Take `O=C(CN(Cc1ccccc1Cl)C(=O)c1ccc(CN2CCOCC2)o1)NCC1CCCO1` (configuration not stated): the cell number change is -17%. Also, the AC50 under setting [1] is 6.51 µM [falling, partial curve, poor fit].
As to `Cc1ccc(C)c(N(CC(=O)N/N=C/c2ccc(-c3ccc([N+](=O)[O-])cc3)o2)S(=O)(=O)c2ccccc2)c1`, the cell number change is -28.3%. For the same molecule, under setting [1], the AC50 is 8.2 µM [falling, partial curve].
Take `Cc1cc(OCC(=O)Nc2sc3c(c2C#N)CC(C)(C)NC3(C)C)c(C(C)C)cc1Cl`: the cell number change is -9.73%. The half-maximal activity concentration (AC50) under setting [2] is 2.31 µM [rising, single point].
Take `CCOc1ccc(NC(=O)CSc2nnc(-c3cc(C)[nH]n3)n2N)cc1`: the cell number change worked out at 23.8%. In addition, under setting [1], the half-maximal activity concentration (AC50) is 29.1 µM [rising, single point].
As for `CCOC(=O)N1CCN(Cc2nc3cc(NC(=O)c4ccco4)ccc3n2CC)CC1`, the cell number change came out at 26.3%. The AC50 under setting [1] is 0.00461 µM [rising, full curve, poor fit].
Take `COCCCN1C(=O)C(=O)/C(=C(/O)c2ccccc2)C1c1ccc2c(c1)OCO2` (configuration not stated): the cell number change came out at 37.2%. For the same molecule, under setting [2], the concentration at half-maximal activity (AC50) was 16.4 µM [rising, single point]. Moreover, under setting [1], the AC50 is 25.9 µM [falling, partial curve, poor fit].
Turning to `Cc1nn(CC(=O)N2CC(=O)Nc3ccccc32)c(C)c1[N+](=O)[O-]`, the cell number change is 25.7%. Further, the half-maximal activity concentration (AC50) under setting [1] was 2.31 µM [rising, partial curve].
Regarding `CN(C)S(=O)(=O)c1ccc(C(=O)OCC(=O)c2csc(N3CCCCC3)n2)cc1`, the cell number change was -4.82%.
Consider `O=C(NC1CCCCC1)n1c(=O)oc2ccc(Cl)cc21`, for which the cell number change was -23.8%. Also, under setting [1], the AC50 was 1.46 µM [falling, partial curve].
In the case of `COc1cc(/C=C(/C(=O)c2cccs2)c2nc3ccccc3[nH]2)cc(OC)c1O`, the cell number change amounted to 5.18%. Also, under setting [2], the half-maximal activity concentration (AC50) is 2.91 µM [rising, partial curve, poor fit]. Under setting [1], the AC50 was 2.59 µM [rising, full curve].
With `O=S(=O)(c1ccc2c(c1)OCCO2)N1CCc2ccccc21`, the cell number change was 3.95%.
With `Cc1cc(C)n(C(=O)c2ccc(C)c(S(=O)(=O)N3CCOCC3)c2)n1`, the cell number change stood at 2.23%. Moreover, under setting [1], the half-maximal activity concentration (AC50) is 5.17 µM [rising, partial curve, poor fit].
For the molecule `COc1ccc(Cc2nnc(NC(=O)c3ccccc3F)s2)cc1OC`, the cell number change is -18.4%. For the same molecule, under setting [1], the concentration at half-maximal activity (AC50) was 0.58 µM [rising, single point].
Turning to `COc1cc(NC(=O)c2ccccc2-n2cnnn2)cc(OC)c1`, the cell number change came to 11.6%.
For the molecule `O=C(Nc1ccc(Br)cc1Cl)Nn1cnnc1`, the cell number change was -31%. Under setting [2], the AC50 is 1.64 µM [falling, full curve]. In addition, under setting [1], the AC50 was 29.1 µM [falling, single point].
As to `O=C(NC1CCCc2ccccc21)C1CCN(S(=O)(=O)c2cccc3nsnc23)CC1` (configuration not stated), under setting [2], the AC50 is 2.31 µM [rising, single point].
Turning to `CCN1C(=O)/C(=C/c2cnn(CC)c2C)SC1=S`, the cell number change was 15.7%. The half-maximal activity concentration (AC50) under setting [2] is 2.06 µM [rising, single point]. For the same molecule, the AC50 under setting [1] is 2.06 µM [rising, partial curve, poor fit].
For the molecule `CCOC(=O)N1CC=C2C(C#N)=C(N)C(C#N)(C#N)[C@H](c3ccc(OCC)c(OCC)c3)[C@H]2C1`, the cell number change was -37.1%. Moreover, the half-maximal activity concentration (AC50) under setting [1] was 0.13 µM [rising, full curve, poor fit].
For `O=C(Nc1ccccc1C(F)(F)F)c1ccc(CN2CCC(Cc3ccccc3)CC2)cc1`, the cell number change was -31.2%. The AC50 under setting [2] is 14.6 µM [falling, partial curve].
As to `Cc1cc(/C=C(\C#N)C(=O)Nc2ccccc2)c(C)n1-c1ccc2c(c1)OCO2`, the AC50 reads like this: under setting [2], 1.46 µM [rising, full curve]; under setting [1], 0.58 µM [rising, full curve].
Regarding `O=C(Nc1ccccc1)c1cccnc1Nc1ccccc1`, the cell number change is -10.4%. The concentration at half-maximal activity (AC50) under setting [1] was 0.517 µM [rising, partial curve].
As for `CC[C@H]1OC(=O)[C@H](C)[C@@H](O[C@H]2C[C@@](C)(OC)[C@@H](O)[C@H](C)O2)[C@H](C)[C@@H](O[C@@H]2O[C@H](C)C[C@H](N(C)C)[C@H]2O)[C@](C)(O)C[C@@H](C)C(=O)[C@H](C)[C@@H](O)[C@]1(C)O`, the cell number change came to 13.2%.
For `C/C(=N\NC(=O)c1cc(O)ccc1O)c1cccc(NC(=O)c2ccc(Cl)cc2)c1`, the cell number change was -22.6%. Moreover, the AC50 under setting [1] is 6.51 µM [rising, single point].
For the molecule `O=C(NCc1ccc(F)cc1)N[C@@H](Cc1ccccc1)C(=O)O`, the cell number change was -8.57%. Moreover, under setting [1], the AC50 was 5.17 µM [falling, partial curve, poor fit].
In the case of `CCC1(c2ccccc2)NC(=O)N(CC(=O)NCc2ccc(F)cc2)C1=O` (configuration not stated), the cell number change was 29.4%. Further, under setting [1], the AC50 was 18.4 µM [rising, partial curve].
For the molecule `CCCCn1c(N)c(N(CCOC)C(=O)COc2ccc(Cl)cc2)c(=O)[nH]c1=O`, the cell number change is -12.9%. Moreover, the AC50 under setting [2] was 0.00461 µM [falling, full curve, poor fit].

As a reminder, the AC50 is the concentration giving half of the maximal activity seen. The low end stands for activity at low concentration, the high end for activity only at high concentration.

(Values after PubChem BioAssay AID2685 (National Center for Advancing Translational Sciences (NCATS), 2010).)
